According to article PMC8891018:
These are yes or no findings as the source states them, for the method shown. Binding seen in cells or lysates may run through a third protein. Some entries that bind do so weakly or less than the wild type.

By UniProt entry, the sequences of proteins in these tests, tags left out. Where a name states a change or a piece, a line headed by the entry shows the natural chain unless it says otherwise. Chains listed by the source or under a name are the forms on record and can include a tag or linker.
UniProt Q9NZ42: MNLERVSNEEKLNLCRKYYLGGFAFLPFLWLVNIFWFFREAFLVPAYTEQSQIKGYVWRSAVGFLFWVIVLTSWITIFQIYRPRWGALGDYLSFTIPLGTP
HA-tagged PEN2-2A (stably expressed in PEN2-/- MEFs) (Q9NZ42, form named): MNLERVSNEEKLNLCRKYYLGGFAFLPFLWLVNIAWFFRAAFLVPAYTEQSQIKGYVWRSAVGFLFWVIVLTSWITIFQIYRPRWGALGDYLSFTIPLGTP

Assays:
[1] = molecular target: HA-tagged PEN2 (stably expressed in MEFs) (UniProt Q9NZ42); assay: co-IP; PEN2-/- MEFs infected with lentivirus expressing HA-tagged PEN2, PEN2-2A or PEN2-20A; cells treated with 200 μM metformin for 12 h; IP with anti-HA; immunoblot for PS1, PS2, NCSTN, APH1A/B/C
[2] = molecular target: HA-tagged PEN2-2A (stably expressed in PEN2-/- MEFs) (UniProt Q9NZ42); assay: as above

- binding [1]: binds
- binding [2]: binds
Substance: PS2 (presenilin 2; endogenous, MEFs) (from UniProt Q61144 1-448)
